We go through one molecule from publication PMC6894925.

The chains behind the UniProt entries cited, without tags or fusion partners. Residues count along the entry.
UniProt P28824, residues 22-928: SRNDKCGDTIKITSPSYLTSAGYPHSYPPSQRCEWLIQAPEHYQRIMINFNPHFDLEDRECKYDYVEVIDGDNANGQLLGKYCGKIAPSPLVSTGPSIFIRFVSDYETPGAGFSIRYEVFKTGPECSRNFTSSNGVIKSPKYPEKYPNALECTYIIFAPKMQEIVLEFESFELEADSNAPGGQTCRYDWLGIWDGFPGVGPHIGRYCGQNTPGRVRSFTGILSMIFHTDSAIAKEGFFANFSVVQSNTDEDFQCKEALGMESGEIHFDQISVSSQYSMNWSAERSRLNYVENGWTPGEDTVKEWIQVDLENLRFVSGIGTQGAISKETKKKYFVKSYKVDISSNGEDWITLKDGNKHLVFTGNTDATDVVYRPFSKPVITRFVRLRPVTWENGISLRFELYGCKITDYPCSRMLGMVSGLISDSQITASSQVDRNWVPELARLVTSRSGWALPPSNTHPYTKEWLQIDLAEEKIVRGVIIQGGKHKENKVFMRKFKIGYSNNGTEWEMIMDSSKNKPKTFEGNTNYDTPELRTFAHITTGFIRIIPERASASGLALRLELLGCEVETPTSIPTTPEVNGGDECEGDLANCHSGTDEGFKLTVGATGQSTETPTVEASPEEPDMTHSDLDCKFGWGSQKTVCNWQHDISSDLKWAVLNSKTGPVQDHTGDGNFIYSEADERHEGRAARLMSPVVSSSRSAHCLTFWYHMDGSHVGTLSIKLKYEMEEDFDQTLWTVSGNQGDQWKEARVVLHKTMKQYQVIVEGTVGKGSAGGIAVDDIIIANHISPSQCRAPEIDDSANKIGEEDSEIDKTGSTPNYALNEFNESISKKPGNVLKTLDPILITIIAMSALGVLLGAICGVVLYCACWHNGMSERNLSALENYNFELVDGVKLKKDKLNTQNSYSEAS

The target in this assay is Neuropilin-1 (Nrp1), Xenopus laevis (Xenopus laevis (endogenous in embryonic brains and eyes and retinal cultures)) (UniProt P28824). Put plainly: co-IP; IP of the endogenous receptor from Xenopus stage 40/41 brain and eye lysate with antibody-coupled Dynabeads (1.5 hr, 4 C; 20 mM Tris-HCl pH 7.4, 150 mM NaCl, 10 mM MgCl2, 10% glycerol, cycloheximide), Western blot; isotype IgG control; in some samples washes with 25 mM EDTA or RNase A/T1 before elution, which decreased the ribosomal proteins and partly Staufen1.

Results are given in words; binding and its absence hold for the method and conditions named. Binding seen in cells or lysates may run through a third protein. Some binding calls cover weakened binding; strength is not graded here.

B1: Staufen1, Xenopus laevis (protein, UniProt Q6GM35 1-708)
chain: MSQAPKSPAAPLPKIQILNKNQHSPLPQPLSIPSTASPLPSENAGRPLQNSALPSPSVTSSGPTAVSSNMANPKEKTPMCLVNELARFNKIQPVYKLLSEQGPAHSKVIPLGRWQDYSLLERVGEERPRQMFTVQLTLGDQYWEAEGTSIKKAQHAAAAKALEGTKYPKPTVRPVRDSITPTVELNALCMKLGRKPIYKPLDPYTGIRSAYNYNMRGGGYPPRYFYPFPVAPILYQVELSVGGQQFHGKGRTRQAAKHDAAARALKSLHHEPLPDKPALNGKAADEENLNKSEISQVFEIALKRNMSVNFEVTKETGPPHMKSFLTKVIVGEFLGEGEGKSKKISKKNAAIAVLEELRKLPPLPTVEKMRPKIKKKTKSIVKLPTSPEYGQGMNPISRLAQIQQAKKGKEPEYILITERGLPRRREFVMQVKVGNHAAEGSGTNKKVAKRNAAENMLEILGFKVPPPPPKPALKTEEKLPVKKPGDGRKVTFYEPGSGEDGANHNKDDEFRMPYHSHQQLPAGILPMVPEVAQAVGVNQGLHTKEFNRVAPNPAKATVTAMIARELLYAGISPTADTILKNNNAAGHVLRGPFTRPSEQLNYLSRVQGLEVEYKDFPKNNKNEFVSLINCSSQPPLISHGIGKDVESCHDMAALNILKLLSELDQQNPEMPRTGNGPMSVCVKPEMESDPLLKPANSNTLGQTLDSTA
On to B1, for which the binding result was “binds”.
